{"source": "PubChem BioAssay AID1259266 | Sanger Institute, 2017", "test": "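Essential genes and drug synergy among kinases and colorectal-mutated genes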 (primary screen)", "cell system": "LS123 human colorectal cancer cells", "reagent": "siRNA pool against human genes", "conditions": "anchor drugs BYL719 (1 µM), cetuximab (5 µg/ml) or trametinib (10 nM), each chosen to barely slow growth alone; DMSO vehicle as the drug-free arm", "measurement": "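Viability relative to non-targeting control pools, replicate mean, with a robust z-score for knock-down alone and synergy scores for each anchor drug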", "scale": "robust z-score, knock-down alone: higher = more cells surviving after knock-down", "hit rule": "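a knock-down counts as essential if its z-score without drug is under -3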", "calls": "active = essential (knock-down alone cuts viability); inactive = no change", "note": "Here is one part, drawn at random, of 794 reagents. 16 of all reagents (2%) were called active. 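Calls reflect knock-down alone, not drug synergy; viability seems capped at 1 and z-scores at 0.585.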 Further read-outs or replicates are left out here. Not stated in the record: the amount of reagent, the time to read-out."}
{"gene knocked down": "PIK3C2B", "robust z-score, knock-down alone": -0.0172, "Call": "inactive"}
{"gene knocked down": "AMER1", "robust z-score, knock-down alone": 0.585, "Call": "inactive"}
{"gene knocked down": "SRPK1", "robust z-score, knock-down alone": 0.585, "Call": "inactive"}
{"gene knocked down": "NRBP2", "robust z-score, knock-down alone": -0.976, "Call": "inactive"}
{"gene knocked down": "NME3", "robust z-score, knock-down alone": -0.957, "Call": "inactive"}
{"gene knocked down": "RTN4", "robust z-score, knock-down alone": 0.334, "Call": "inactive"}
{"gene knocked down": "STKLD1", "robust z-score, knock-down alone": 0.428, "Call": "inactive"}
{"gene knocked down": "JAK3", "robust z-score, knock-down alone": 0.583, "Call": "inactive"}
{"gene knocked down": "ACVR2B", "robust z-score, knock-down alone": -0.105, "Call": "inactive"}
{"gene knocked down": "ADCK1", "robust z-score, knock-down alone": 0.498, "Call": "inactive"}
{"gene knocked down": "PEAK1", "robust z-score, knock-down alone": -0.82, "Call": "inactive"}
{"gene knocked down": "PAPSS1", "robust z-score, knock-down alone": 0.585, "Call": "inactive"}
{"gene knocked down": "MATK", "robust z-score, knock-down alone": -0.604, "Call": "inactive"}
{"gene knocked down": "ABL1", "robust z-score, knock-down alone": 0.585, "Call": "inactive"}
{"gene knocked down": "PDK4", "robust z-score, knock-down alone": 0.585, "Call": "inactive"}
{"gene knocked down": "DGKD", "robust z-score, knock-down alone": 0.585, "Call": "inactive"}
{"gene knocked down": "ACVR1C", "robust z-score, knock-down alone": 0.585, "Call": "inactive"}
{"gene knocked down": "CLK1", "robust z-score, knock-down alone": 0.156, "Call": "inactive"}
{"gene knocked down": "CSNK1D", "robust z-score, knock-down alone": 0.585, "Call": "inactive"}
